# Assay results reported in US20060142395A1, “Modulation of intracellular calcium signaling by N-acylethanolamines” (University of North Texas Health Science Center, priority 2003, published 2006).
# For at least one compound, name, drawing or mass did not settle the structure.
# System: IP3R
# Assay: Western blot of phosphothreonine on IP3R in retina tissue in vitro
# Assay type: cell-based, mouse
# Settings: 15 μM with 100 nM progesterone, 60 min
# Text: Chemo-luminescence-enhanced Western blotting as a sensitive method to evaluate changes in intracellular signaling. A crucial factor in the determination of signaling proteins mediating neuroprotection is the specificity of reagents used for immunolocalization. As disclosed herein, a number of antibodies identified and characterized (Tables 1 and 2) and the conditions that allow full identification of signaling proteins mediating NAE responses through NAEs in neurons provided. Using the sensitive chemo-luminescence-enhanced Western blotting technique, changes were detected in signaling protein composition. Furthermore, immunodetection methods allow an analysis of the changes in the phosphorylation status of signaling proteins in experiments assessing the neuroprotective functions of NAEs. The high temporal and quantitative sensitivity of the assay system may be especially useful in our in vitro and in vivo model systems of neurotoxicity which will measure small but functionally relevant initial changes associated with neuronal damage. In additional studies, the effects of lipophilic hormones on the phosphorylation status of intracellular calcium channels was determined. […]
# The high temporal and quantitative sensitivity of the assay system may be especially useful in our model systems which will produce functionally relevant initial changes associated with neuronal damage.
structure (smiles),measurement,value
O=c1cc(N2CCOCC2)oc2c(-c3ccccc3)cccc12 [LY294002],effect on progesterone-induced increase of phosphothreonine immunoreactivity on the IP3R,specifically blocked
